Values quoted from earlier work as cited in US11751586B2, “Compositions and methods for improving taste of non-nutritive sweeteners” (PEPSICO, INC., priority 2016, dated 2023).
At least one compound was matched to its structure with a doubt left.

Conditions: cited from earlier work

## C=C1C[C@@]23CC[C@H]4[C@@](C)(CCC[C@@]4(C)C(=O)O[C@@H]4O[C@H](CO)[C@@H](O)[C@H](O)[C@H]4O)[C@@H]2CC[C@]1(O[C@@H]1O[C@H](CO)[C@@H](O)[C@H](O)[C@H]1O[C@@H]1O[C@@H](C)[C@H](O)[C@@H](O)[C@H]1O)C3 [Dulcoside A]
  times sweeter than sucrose: 30 times
